Reference: publication PMC9897673

The chains behind the UniProt entries cited, without tags or fusion partners. Where a name states a change or a piece, a line headed by the entry shows the natural chain unless it says otherwise.
UniProt P05556: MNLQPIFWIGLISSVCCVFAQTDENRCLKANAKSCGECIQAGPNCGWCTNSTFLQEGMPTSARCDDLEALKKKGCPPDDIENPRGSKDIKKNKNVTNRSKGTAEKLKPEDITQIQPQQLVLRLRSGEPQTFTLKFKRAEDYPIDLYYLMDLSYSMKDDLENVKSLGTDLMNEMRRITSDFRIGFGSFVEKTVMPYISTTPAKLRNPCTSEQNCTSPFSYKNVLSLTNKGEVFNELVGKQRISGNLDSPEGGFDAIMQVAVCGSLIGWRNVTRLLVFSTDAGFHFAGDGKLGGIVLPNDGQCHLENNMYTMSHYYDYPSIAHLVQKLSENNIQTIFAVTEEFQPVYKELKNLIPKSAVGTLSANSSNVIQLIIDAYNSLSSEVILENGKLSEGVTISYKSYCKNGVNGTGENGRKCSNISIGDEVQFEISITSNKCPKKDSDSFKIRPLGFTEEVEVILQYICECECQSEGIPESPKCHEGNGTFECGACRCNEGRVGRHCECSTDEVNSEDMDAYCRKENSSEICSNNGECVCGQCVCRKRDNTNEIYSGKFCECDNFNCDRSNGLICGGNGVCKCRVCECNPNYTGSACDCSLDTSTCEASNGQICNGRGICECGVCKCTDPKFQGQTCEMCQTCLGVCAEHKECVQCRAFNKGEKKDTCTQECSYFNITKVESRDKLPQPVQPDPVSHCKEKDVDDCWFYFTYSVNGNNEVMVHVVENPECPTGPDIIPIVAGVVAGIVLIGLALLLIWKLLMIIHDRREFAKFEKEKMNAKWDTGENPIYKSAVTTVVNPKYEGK
UniProt O14745: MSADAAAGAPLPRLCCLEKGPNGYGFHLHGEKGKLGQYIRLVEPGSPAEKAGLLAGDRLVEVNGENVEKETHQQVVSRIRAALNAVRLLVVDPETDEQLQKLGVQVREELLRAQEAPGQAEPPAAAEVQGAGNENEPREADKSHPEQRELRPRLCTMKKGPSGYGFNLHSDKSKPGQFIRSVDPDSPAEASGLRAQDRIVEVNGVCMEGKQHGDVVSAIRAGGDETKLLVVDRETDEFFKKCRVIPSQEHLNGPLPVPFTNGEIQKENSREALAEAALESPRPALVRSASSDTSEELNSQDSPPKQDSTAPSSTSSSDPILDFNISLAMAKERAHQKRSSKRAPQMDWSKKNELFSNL

Target: T1, GFP-PODXL WT (podocalyxin isoform A, extracellularly GFP-tagged) (human) (UniProt O00592)
T1 sequence: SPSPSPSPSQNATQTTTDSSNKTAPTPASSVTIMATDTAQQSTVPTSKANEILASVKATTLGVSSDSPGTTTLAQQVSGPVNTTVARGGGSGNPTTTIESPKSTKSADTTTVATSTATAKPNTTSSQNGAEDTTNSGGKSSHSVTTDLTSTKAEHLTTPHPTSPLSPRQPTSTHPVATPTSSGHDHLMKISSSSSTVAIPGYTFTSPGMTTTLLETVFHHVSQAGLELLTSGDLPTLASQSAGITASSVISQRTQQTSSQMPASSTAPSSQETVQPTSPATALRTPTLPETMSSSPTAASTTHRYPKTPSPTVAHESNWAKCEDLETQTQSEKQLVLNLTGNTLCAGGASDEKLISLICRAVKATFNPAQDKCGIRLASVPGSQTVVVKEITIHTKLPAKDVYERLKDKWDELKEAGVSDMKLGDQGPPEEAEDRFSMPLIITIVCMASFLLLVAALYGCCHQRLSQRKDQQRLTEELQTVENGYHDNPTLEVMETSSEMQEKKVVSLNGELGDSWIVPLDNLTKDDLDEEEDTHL
Experiment: affinity purification with mass spectrometry; GFP-Trap precipitation from SILAC-labelled PC3 cells overexpressing GFP, GFP-PODXL or GFP-PODXL sorted for high surface levels; in-gel digestion, LC-MS/MS

In the case of “β1-integrin (ITGB1), endogenous (from UniProt P05556 21-798) (receptor)”, the binding is reported as “binds”.

In the case of “SLC9A3R1/NHERF1, endogenous (from UniProt O14745 1-358)”, the binding is reported as “binds”.

No constants are given. Whether binding was seen depends on the method and setting. In cells and extracts the contact can be indirect. These calls come from enrichment with a bait or labelling near it, and not all partners need be listed. Tags and fused reporters may be left off the sequences shown.
